PubChem BioAssay AID1224830 – NIAID, 2016

Assay: 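Host factors that control LPS-induced TNF expression in human macrophages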 (primary screen)
Cells: human THP-1 monocytic leukaemia cells, TNF dual-luciferase reporter clone, PMA-differentiated to macrophage-like cells
Knock-down reagent: siRNA pool against human genes, 50 nM
Timing: LPS for 4 h, given about 3 days after siRNA transfection
Conditions: bacterial LPS (TLR4 ligand), 10 ng/ml
Detection: 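Ratio of firefly to renilla light, scaled to the plate median and expressed as a robust z-score per replicate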
Reading the numbers: TNF reporter robust z-score: higher = stronger TNF reporter response to LPS
Hit rule: 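a well is active when its z-score exceeds 2.8 or falls below -1.5; control wells carry no call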
The deposit covers about 18,000 reagents; shown is a random part of them. About 2,900 of them (16%) count as active. 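Calls are made per well; low scores hint the gene aids the LPS response, high scores that it dampens it.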 Entries without a mark were called inactive. Repeated entries: four replicate wells of each siRNA pool.

{"gene":"ARHGAP1 (GeneID 392)","TNF reporter robust z-score":1.66}
{"gene":"ARHGAP1 (GeneID 392)","TNF reporter robust z-score":0.58}
{"gene":"ARHGAP1 (GeneID 392)","TNF reporter robust z-score":1.37}
{"gene":"ARHGAP1 (GeneID 392)","TNF reporter robust z-score":-0.71}
{"gene":"SHANK1 (GeneID 50944)","TNF reporter robust z-score":"2.96 (active)"}
{"gene":"SHANK1 (GeneID 50944)","TNF reporter robust z-score":-0.07}
{"gene":"SHANK1 (GeneID 50944)","TNF reporter robust z-score":1.41}
{"gene":"SHANK1 (GeneID 50944)","TNF reporter robust z-score":-0.14}
{"gene":"GDF9 (GeneID 2661)","TNF reporter robust z-score":"-2.31 (active)"}
{"gene":"GDF9 (GeneID 2661)","TNF reporter robust z-score":"-1.72 (active)"}
{"gene":"GDF9 (GeneID 2661)","TNF reporter robust z-score":"-1.67 (active)"}
{"gene":"GDF9 (GeneID 2661)","TNF reporter robust z-score":-1.29}
{"gene":"WDHD1 (GeneID 11169)","TNF reporter robust z-score":-0.51}
{"gene":"WDHD1 (GeneID 11169)","TNF reporter robust z-score":-0.59}
{"gene":"WDHD1 (GeneID 11169)","TNF reporter robust z-score":-0.96}
{"gene":"WDHD1 (GeneID 11169)","TNF reporter robust z-score":-0.16}
{"gene":"ARHGAP22 (GeneID 58504)","TNF reporter robust z-score":-0.65}
{"gene":"ARHGAP22 (GeneID 58504)","TNF reporter robust z-score":-0.6}
{"gene":"ARHGAP22 (GeneID 58504)","TNF reporter robust z-score":0.14}
{"gene":"ARHGAP22 (GeneID 58504)","TNF reporter robust z-score":-0.09}
{"gene":"GIPC2 (GeneID 54810)","TNF reporter robust z-score":0.49}
{"gene":"GIPC2 (GeneID 54810)","TNF reporter robust z-score":0.68}
{"gene":"GIPC2 (GeneID 54810)","TNF reporter robust z-score":-0.47}
{"gene":"GIPC2 (GeneID 54810)","TNF reporter robust z-score":0.11}
{"gene":"BIN1 (GeneID 274)","TNF reporter robust z-score":-0.17}
{"gene":"BIN1 (GeneID 274)","TNF reporter robust z-score":0.16}
{"gene":"BIN1 (GeneID 274)","TNF reporter robust z-score":-0.83}
{"gene":"BIN1 (GeneID 274)","TNF reporter robust z-score":-0.99}
{"gene":"NPC2 (GeneID 10577)","TNF reporter robust z-score":-0.43}
{"gene":"NPC2 (GeneID 10577)","TNF reporter robust z-score":0.71}
{"gene":"NPC2 (GeneID 10577)","TNF reporter robust z-score":0.07}
{"gene":"NPC2 (GeneID 10577)","TNF reporter robust z-score":-0.14}
{"gene":"TTC1 (GeneID 7265)","TNF reporter robust z-score":-0.94}
{"gene":"TTC1 (GeneID 7265)","TNF reporter robust z-score":-1.08}
{"gene":"TTC1 (GeneID 7265)","TNF reporter robust z-score":-1.13}
{"gene":"TTC1 (GeneID 7265)","TNF reporter robust z-score":-0.31}
{"gene":"PPOX (GeneID 5498)","TNF reporter robust z-score":-0.29}
{"gene":"PPOX (GeneID 5498)","TNF reporter robust z-score":-0.49}
{"gene":"PPOX (GeneID 5498)","TNF reporter robust z-score":1.72}
{"gene":"PACSIN2 (GeneID 11252)","TNF reporter robust z-score":-0.55}
{"gene":"PACSIN2 (GeneID 11252)","TNF reporter robust z-score":0.68}
{"gene":"PACSIN2 (GeneID 11252)","TNF reporter robust z-score":0}
{"gene":"PACSIN2 (GeneID 11252)","TNF reporter robust z-score":-0.56}
{"gene":"PRSS42P (GeneID 339906)","TNF reporter robust z-score":1.08}
{"gene":"PRSS42P (GeneID 339906)","TNF reporter robust z-score":-0.3}
{"gene":"PRSS42P (GeneID 339906)","TNF reporter robust z-score":0.85}
{"gene":"PRSS42P (GeneID 339906)","TNF reporter robust z-score":1.41}
{"gene":"NTMT1 (GeneID 28989)","TNF reporter robust z-score":1.6}
{"gene":"NTMT1 (GeneID 28989)","TNF reporter robust z-score":1.36}
{"gene":"NTMT1 (GeneID 28989)","TNF reporter robust z-score":2.2}
{"gene":"NTMT1 (GeneID 28989)","TNF reporter robust z-score":2.49}
{"gene":"RAPGEF6 (GeneID 51735)","TNF reporter robust z-score":0.57}
{"gene":"RAPGEF6 (GeneID 51735)","TNF reporter robust z-score":0.93}
{"gene":"RAPGEF6 (GeneID 51735)","TNF reporter robust z-score":0.1}
{"gene":"RAPGEF6 (GeneID 51735)","TNF reporter robust z-score":0.6}
{"gene":"MED14 (GeneID 9282)","TNF reporter robust z-score":-0.59}
{"gene":"MED14 (GeneID 9282)","TNF reporter robust z-score":-0.79}
{"gene":"MED14 (GeneID 9282)","TNF reporter robust z-score":-0.9}
{"gene":"MED14 (GeneID 9282)","TNF reporter robust z-score":-0.36}
{"gene":"KTI12 (GeneID 112970)","TNF reporter robust z-score":-0.61}
{"gene":"KTI12 (GeneID 112970)","TNF reporter robust z-score":0.44}
{"gene":"KTI12 (GeneID 112970)","TNF reporter robust z-score":-1.18}
{"gene":"KTI12 (GeneID 112970)","TNF reporter robust z-score":-0.6}

Ordered by “TNF reporter robust z-score” (high to low): 4 of the entries above
{"gene":"PACSIN2 (GeneID 11252)","TNF reporter robust z-score":0.68}
{"gene":"PACSIN2 (GeneID 11252)","TNF reporter robust z-score":0}
{"gene":"PACSIN2 (GeneID 11252)","TNF reporter robust z-score":-0.55}
{"gene":"PACSIN2 (GeneID 11252)","TNF reporter robust z-score":-0.56}
